Test [1] deals with T1, wild-type IL-7Rα (his-tagged, secreted from HEK293T cells) (human) (UniProt P16871).
T1 sequence (looked up): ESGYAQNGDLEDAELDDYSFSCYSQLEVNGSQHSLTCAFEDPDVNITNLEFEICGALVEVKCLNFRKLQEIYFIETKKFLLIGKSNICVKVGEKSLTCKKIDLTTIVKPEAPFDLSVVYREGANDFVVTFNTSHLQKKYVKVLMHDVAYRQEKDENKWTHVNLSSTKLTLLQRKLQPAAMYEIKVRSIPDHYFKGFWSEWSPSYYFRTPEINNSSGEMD
Kind of test: SPR (ProteOn XPR36), antibody amine-coupled, IL-7Rα at 100 nM.

The target in test [2] is Human IL-7R-hFc antigen (R&D systems) (human) (UniProt P16871). The test can be described thus: SPR (Biacore 2000/3000).

Numbering of substitutions follows the chain as printed. No constants are given. Whether binding was seen depends on the method and setting. Some binding calls cover weakened binding; strength is not graded here. For part of these data: Sequences can lack the tags named with a protein.

B1: HAL403a (full-length antibody) (antibody, V domains shown)
VH: QVNLRESGGGLVKPGGSLRLSCAASGFTFDDSVMHWVRQAPGKGLEWLSLVGWDGFFTYYADSVKGRFTISRDNTKNLLYLQMNSLRAEDTAVYYCARQGDYMGNNWGQGTLVTVSS
VL: NFMLTQPHSVSGSPGKTVTISCTRSSGSIDSSYVQWYQQRPGNSPTTVIYEDDQRPSGVPDRFSGSIDSSSNSASLTISGLVTEDEADYYCQSYDFHHLVFGGGTKLTVLT
B1: the binding entry in test [1] is reported as “binds”.

B2: HAL403b (full-length antibody) (antibody, V domains shown)
VH: B1 VH
VL: B1 VL with Q92M, S93Q, T111C
Take B2: in test [1], the binding entry was “binds”.

B3: C1GM-2 (hIgG2ΔA) (antibody)
heavy: EVQLVESGGGLVKPGGSLRLSCAASGFTFDDSVMHWVRQAPGKGLEWVSLVGWDGFFTYYADSVKGRFTISRDNAKNSLYLQMNSLRAEDTAVYYCARQGDYMGNNWGQGTLVTVSSASTKGPSVFPLAPCSRSTSESTAALGCLVKDYFPEPVTVSWNSGALTSGVHTFPAVLQSSGLYSLSSVVTVPSSNFGTQTYTCNVDHKPSNTKVDKTVAPPVAGPSVFLFPPKPKDTLMISRTPEVTCVVVDVSHEDPEVQFNWYVDGVEVHNAKTKPREEQFNSTFRVVSVLTVVHQDWLNGKEYKCKVSNKGLPSSIEKTISKTKGQPREPQVYTLPPSREEMTKNQVSLTCLVKGFYPSDIAVEWESNGQPENNYKTTPPMLDSDGSFFLYSKLTVDKSRWQQGNVFSCSVMHEALHNHYTQKSLSLSPGK
light: NFMLTQPHSVSESPGKTVTISCTRSSGSIDSSYVQWYQQRPGSSPTTVIYEDDQRPSGVPDRFSGSIDSSSNSASLTISGLKTEDEADYYCQSYDFHHLVFGGGTKLTVLQPKAAPSVTLFPPSSEELQANKATLVCLISDFYPGAVTVAWKADSSPVKAGVETTTPSKQSNNKYAASSYLSLTPEQWKSHRSYSCQVTHEGSTVEKTVAPTECS
With B3, the binding result in test [2] is on record as “binds”.
